Results: US12636284B2, “Compositions for use in the prevention and/or treatment of intellectual disability and neurodegenerative diseases in a subject with down syndrome” (UNIVERSITA' DEGLI STUDI DI ROMA “LA SAPIENZA”, priority 2021, dated 2026)
At least one structure is not confirmed: it was looked up by name or label, or the drawing left a doubt.

Test system: GSK3b protein
Test: GSK3b activation (pSer9/pTyr216 ratio) in primary hippocampal neurons isolated from Ts2Cje mice
Assay type: cell-based, mouse
Settings: 1, 5, 10 μM for 24 hours
Procedure: For Western blots, 20 μg of proteins from the hippocampus of mice belonging to the four experimental groups were separated by 4-15% SDS-PAGE CriterionTM […] (Bio-rad, Hercules, CAUSE). […] Therefore, the gel, once the image has been acquired, represents the total of the loaded proteins (Total Load), which will then be used to normalize the specific proteins to be examined. After electrophoresis and gel imaging, proteins are transferred via the semi-dry TransBlot Turbo apparatus (Bio-Rad Laboratories) onto nitrocellulose membranes (Bio-Rad, Hercules, CA, USA). Nitrocellulose membranes are blocked with 3% bovine serum albumin (BSA) in a solution of Tween 20-TBS and incubated overnight at 4° C. using specific primary antibodies: p([…])-GSK3B (1:1000, Santa Cruz, #sc-135653), p(S9)-GSK3β (1:1000, Cell Signaling, #5558S), GSK3β (1:1000 Abcam, #93926) and DYRK1A (1:1000, Cell Signaling, #8765S), MAPK44/42 (1:1000, Cell Signaling, #9102), p[…])-MAPK44/42 (1 1000, Cell Signaling, #9101), Akt (1:2000, Bio-Rad, # vma00253K), p(S473) Akt (1:1000, Cell Signaling, #4060S). After three washes with a T-TBS buffer solution, membranes were incubated for 1 hour at room temperature with the secondary antibodies. […] Finally, the results obtained were analyzed using the ImageLab program (Bio-rad, Hercules, CA, USA). […]

Question: `CC#CCn1c(N2CCC[C@@H](N)C2)nc2c1c(=O)n(Cc1nc(C)c3ccccc3n1)c(=O)n2C` [linagliptin] was tested. Which “activity of the GSK3B protein in Ts2Cje neurons” value did it give?
Answer: significant increase
